# Entries after “also recorded” stand apart in the source; their conditions may differ.
# Test system: MCF7 cells
# Experiment: Cell uptake and localisation by fluorescent confocal microscopy
# Details: 0.5 μM, 30 min exposure
smiles,measurement,value
CN(C)CCCNc1cc2c3c(c(NCCCN(C)C)cc4c3c1C(=O)N(CCCN(C)C)C4=O)C(=O)N(CCCN(C)C)C2=O [Compound 12],localisation within MCF7 cells (confocal microscopy),localise exclusively in the nucleus; also recorded: localisation in the nucleolus

# From patent US8796456B2, “Naphthalene diimide compounds” (University College London, priority 2007, dated 2014)
